± gives the standard deviation of the averaged measurements. The full ranking holds about 3,800 compounds; the median of “cell shape (eccentricity) Z-score vs DMSO control” is about 1.1, and the lowest 2% start at about -4.7. This is one part of the list.
tested on: human monocyte-derived macrophages (M0); assay: cell shape (eccentricity) Z-score vs DMSO control; higher = more elongated, M2-like morphology; settings: 20 µM; 24 h; macrophage state: M0 (M-CSF)

| SMILES | cell shape (Z-score) |
| --- | --- |
| NS(=O)(=O)c1nn2cc(-c3ccccc3)nc2s1 | 4.03 |
| O=S(=O)(c1cccc2cnccc12)N1CCNCC1 | 10.1 |
| CC1(C)O[C@@H]2CC3C4CCC5=CC(=O)CCC5(C)C4(F)C(O)CC3(C)[C@]2(C(=O)CCl)O1 (stereo partly specified) | -3.6 |
| CC1=CC(=O)C2C(C)(C)CC(O)CC2(C)C1(O)CO (stereo unspecified) | 2.65 ± 1.5 |
| CCCNCC(O)COc1ccccc1C(=O)CCc1ccccc1 (stereo unspecified) | 2.27 |
| CCCCC1(COC(=O)CCC(=O)O)C(=O)N(c2ccccc2)N(c2ccccc2)C1=O | 2.18 |
| C[C@@H]1O[C@@H](O[C@H]2[C@H](Oc3cc(O)c4c(=O)cc(-c5ccc(O)cc5)oc4c3)O[C@H](CO)[C@@H](O)[C@@H]2O)[C@H](O)[C@H](O)[C@H]1O | 1.02 |
| O=C1NC(=O)C(c2ccccc2)(c2ccccc2)N1 | 2.96 |
| O=C1c2cc(O)cc(O)c2C(=O)c2c(O)cc(CO)cc21 | -0.497 |
| O=C(/C=C/c1ccc(O)c(O)c1)OC(Cc1ccc(O)c(O)c1)C(=O)O (stereo unspecified) | 2.69 |
| CN1C(=O)c2ccccc2-n2c(nc3ccccc3c2=O)[C@@]12O[C@H]2c1ccccc1 | 2.3 |
| CC(C)CC(=O)O[C@@H]1OC=C(CO[C@@H]2O[C@H](CO)[C@@H](O)[C@H](O)[C@H]2O)[C@H]2C[C@H](O)[C@@](C)(O)[C@@H]12 | 2.28 ± 0.88 |
| CNCCCC1c2ccccc2C=Cc2ccccc21 | 2.99 |
| CCN(CC)CCOc1ccc(Cc2ccccc2)cc1 | 0.76 |
| C/C(=C\C(=O)Nc1ccccc1C(=O)O)c1ccc2ccccc2c1 | 1.16 |
| O=[N+]([O-])c1cccc2c(Br)n[nH]c12 | 1.68 |
| Cc1ccc2nc(NCCN)c3ncc(C)n3c2c1 | 0.943 |
| COc1cccc(OC)c1-c1cc(C(=O)NC2(C(=O)O)C3CC4CC(C3)CC2C4)nn1-c1ccc(C(=O)N(C)CCCN(C)C)cc1C(C)C (stereo unspecified) | 0.908 |
| CN/C(=C\[N+](=O)[O-])NCCSCc1csc(CN(C)C)n1 | 1.52 |

| SMILES | cell shape (Z-score) |
| --- | --- |
| CCN(Cc1cccc(S(=O)(=O)O)c1)c1cccc(C(=C2C=CC(=[N+](CC)Cc3cccc(S(=O)(=O)O)c3)C=C2)c2ccc(O)cc2S(=O)(=O)O)c1 | -0.759 |
| COc1cc(NS(C)(=O)=O)ccc1Cc1c2ccccc2nc2ccccc12 | 0.322 |
| CC1=C(CO)C(=O)OC([C@@H](C)[C@H]2CCC3C4CC=C5C[C@@H](O[C@@H]6O[C@H](CO)[C@@H](O)[C@H](O)[C@H]6O)C[C@H](O)[C@]5(C)C4CC[C@@]32C)C1 (stereo partly specified) | 1.5 |
| CC(C)=CCC/C(C)=C/CC/C(C)=C/Cc1c(C)cc(O)cc1O | -0.328 |
| COC(=O)c1cc(CO)cc(O)c1C(=O)c1c(O)cccc1O | 0.915 |
| COc1nc(C)nc(Cl)c1NC1=NCCN1 | 0.738 |
| O=C(c1ccc(F)cc1)C1CCN(CCn2c(=S)[nH]c3ccccc3c2=O)CC1 | -0.52 |
| C=CC/C=C\C/C=C\CCCCCCCc1cccc(O)c1C(=O)O | 1.56 |
| COc1c2occc2c(OC)c2c(=O)cc(C)oc12 | 1.97 |
| O=C(O)CCC(=O)c1ccc(-c2ccccc2)cc1 | 4.1 |
| Oc1c(I)cc(I)c2cccnc12 | 1.5 |
| CC(=O)c1c(O)c(C)c(O)c2c1OC1=CC(=O)C(C(C)=O)C(=O)C12C (stereo unspecified) | 2.36 |
| C=C1C(=O)O[C@H]2C3=C(C)C[C@H](OC(C)=O)C[C@]3(C)CC[C@@H]12 | 6.29 |
| Cc1cc(-n2c(=O)[nH]c(=O)n(C)c2=O)ccc1Oc1ccc(SC(F)(F)F)cc1 | 2.6 |
| C/C=C/c1ccc2c(c1)O[C@@H](CN(C)C(=O)c1ccccc1)[C@@H](C)CN([C@@H](C)CO)S2(=O)=O | 6.42 |
| CC(C)=CCc1c(O)cc(O)c2c1OC(c1ccc(O)c(O)c1)CC2=O (stereo unspecified) | 1.24 |
| COc1cc2nc3occc3c(OC)c2cc1OCC(O)C(C)(C)O (stereo unspecified) | 1.64 |
| COc1c(O)c(C(=O)/C=C\c2ccccc2)c(OC)c(OC)c1OC | 5.2 |
| COc1ccc2cc(CCC(C)=O)ccc2c1 | 0.994 |

Two compounds picked at random from those above, as already listed:

| SMILES | cell shape (Z-score) |
| --- | --- |
| CC(C)=CCC/C(C)=C/CC/C(C)=C/Cc1c(C)cc(O)cc1O | -0.328 |
| CC(=O)c1c(O)c(C)c(O)c2c1OC1=CC(=O)C(C(C)=O)C(=O)C12C (stereo unspecified) | 2.36 |

Further records

| SMILES | cell shape (Z-score) |
| --- | --- |
| O=C(/C=C/c1ccccc1)O[C@@H]1O[C@H](CO)[C@@H](O)[C@H](O)[C@H]1O | 2.26 |
| COc1cc([C@H](Cc2ccccc2)NC(C)=O)oc(=O)c1 | 2.15 |
| CO/N=C(/C(=O)NC1C(=O)N2C(C(=O)OC(C)OC(C)=O)=C(COC(N)=O)CSC12)c1ccco1 (stereo unspecified) | 1.75 |
| C[C@@H]1O[C@@H](O[C@H]2[C@H](O[C@H]3[C@H](O[C@H]4CC[C@@]5(C)C(CC[C@]6(C)C5CC=C5[C@@H]7CC(C)(C)C[C@@H](O)[C@]7(C)CC[C@]56C)[C@@]4(C)CO)O[C@H](C(=O)O)[C@@H](O)[C@@H]3O)OC[C@H](O)[C@@H]2O)[C@H](O)[C@H](O)[C@H]1O (stereo partly specified) | -1.07 |
| Nc1ccc(/N=N/c2ccccc2)c(N)n1 | -1.01 |
| CCC(C)C1NC(=O)c2c1n(C)c1ccccc1c2=O (stereo unspecified) | -1.06 |
| CCN(Cc1ccncc1)C(=O)C(CO)c1ccccc1 (stereo unspecified) | -0.586 |
| CC(C)c1ccc2c(c1)CCC1C(C)(C(N)=O)CCCC21C (stereo unspecified) | 3.44 |
| CC(=O)N(OCc1ccccc1)[C@@H]1c2cc(C#N)ccc2OC(C)(C)[C@H]1O | 0.703 |
| COc1cc2nc(N3CCN(C(=O)c4ccco4)CC3)nc(N)c2cc1OC | -2.47 |
| CC(=O)NC(Cc1c[nH]c2ccccc12)C(=O)OCc1cc(C(F)(F)F)cc(C(F)(F)F)c1 (stereo unspecified) | 2.03 |
| COc1c(OC)c(O)c2c(=O)c(O)c(-c3ccccc3)oc2c1OC | 4.23 |
| COc1ccc2[nH]cc(CCNC(C)=O)c2c1 | -0.192 |
| O=C(CCc1ccc(O)cc1)c1c(O)cc(O[C@@H]2O[C@H](CO)[C@@H](O)[C@H](O)[C@H]2O)cc1O | 1.9 |
| C/C(=C\Cc1c(O[C@@H]2O[C@H](CO)[C@@H](O)[C@H](O)[C@H]2O)ccc2ccc(=O)oc12)CO | 0.962 ± 0.97 |
| CO[C@H]1C[C@@H]2CC[C@@H](C)[C@@](O)(O2)C(=O)C(=O)N2CCCC[C@H]2C(=O)O[C@H]([C@H](C)C[C@@H]2CC[C@@H](O)[C@H](OC)C2)CC(=O)[C@H](C)/C=C(\C)[C@@H](O)[C@@H](OC)C(=O)[C@H](C)C[C@H](C)/C=C/C=C/C=C/1C | 0.164 ± 1.3 |
| Oc1nc2cc(Cl)c(Cl)cc2nc1O | 1.51 |
| N#C/C(=C\c1ccc(O)c(O)c1)C(=O)NC1CCC(CC2CCC(NC(=O)/C(C#N)=C/c3ccc(O)c(O)c3)CC2)CC1 (stereo unspecified) | 0.897 |
